Results are given in words; binding and its absence hold for the method and conditions named. In cells and extracts the contact can be indirect. Some entries that bind do so weakly or less than the wild type.
Target: CTLA-4 (human (endogenous in primary T cells)) (UniProt P16410)
Assay: co-IP; anti-CTLA-4 antibody coupled to agarose beads; lysates of CD3/CD28-activated T cells from healthy donors (Octyl buffer) after reversible cross-linking with DSP; 4 °C overnight; immunoblot of NBEAL2, LRBA and CTLA-4; unstimulated T cells as negative control

Amino acid sequences for entries named in this document (tags omitted). Residues count along the entry.
UniProt P16410, residues 36-223: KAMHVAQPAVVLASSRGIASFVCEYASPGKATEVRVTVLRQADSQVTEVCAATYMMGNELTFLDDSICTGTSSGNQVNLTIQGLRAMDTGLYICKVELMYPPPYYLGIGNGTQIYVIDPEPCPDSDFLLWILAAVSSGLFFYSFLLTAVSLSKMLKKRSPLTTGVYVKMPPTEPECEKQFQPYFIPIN
UniProt P50851: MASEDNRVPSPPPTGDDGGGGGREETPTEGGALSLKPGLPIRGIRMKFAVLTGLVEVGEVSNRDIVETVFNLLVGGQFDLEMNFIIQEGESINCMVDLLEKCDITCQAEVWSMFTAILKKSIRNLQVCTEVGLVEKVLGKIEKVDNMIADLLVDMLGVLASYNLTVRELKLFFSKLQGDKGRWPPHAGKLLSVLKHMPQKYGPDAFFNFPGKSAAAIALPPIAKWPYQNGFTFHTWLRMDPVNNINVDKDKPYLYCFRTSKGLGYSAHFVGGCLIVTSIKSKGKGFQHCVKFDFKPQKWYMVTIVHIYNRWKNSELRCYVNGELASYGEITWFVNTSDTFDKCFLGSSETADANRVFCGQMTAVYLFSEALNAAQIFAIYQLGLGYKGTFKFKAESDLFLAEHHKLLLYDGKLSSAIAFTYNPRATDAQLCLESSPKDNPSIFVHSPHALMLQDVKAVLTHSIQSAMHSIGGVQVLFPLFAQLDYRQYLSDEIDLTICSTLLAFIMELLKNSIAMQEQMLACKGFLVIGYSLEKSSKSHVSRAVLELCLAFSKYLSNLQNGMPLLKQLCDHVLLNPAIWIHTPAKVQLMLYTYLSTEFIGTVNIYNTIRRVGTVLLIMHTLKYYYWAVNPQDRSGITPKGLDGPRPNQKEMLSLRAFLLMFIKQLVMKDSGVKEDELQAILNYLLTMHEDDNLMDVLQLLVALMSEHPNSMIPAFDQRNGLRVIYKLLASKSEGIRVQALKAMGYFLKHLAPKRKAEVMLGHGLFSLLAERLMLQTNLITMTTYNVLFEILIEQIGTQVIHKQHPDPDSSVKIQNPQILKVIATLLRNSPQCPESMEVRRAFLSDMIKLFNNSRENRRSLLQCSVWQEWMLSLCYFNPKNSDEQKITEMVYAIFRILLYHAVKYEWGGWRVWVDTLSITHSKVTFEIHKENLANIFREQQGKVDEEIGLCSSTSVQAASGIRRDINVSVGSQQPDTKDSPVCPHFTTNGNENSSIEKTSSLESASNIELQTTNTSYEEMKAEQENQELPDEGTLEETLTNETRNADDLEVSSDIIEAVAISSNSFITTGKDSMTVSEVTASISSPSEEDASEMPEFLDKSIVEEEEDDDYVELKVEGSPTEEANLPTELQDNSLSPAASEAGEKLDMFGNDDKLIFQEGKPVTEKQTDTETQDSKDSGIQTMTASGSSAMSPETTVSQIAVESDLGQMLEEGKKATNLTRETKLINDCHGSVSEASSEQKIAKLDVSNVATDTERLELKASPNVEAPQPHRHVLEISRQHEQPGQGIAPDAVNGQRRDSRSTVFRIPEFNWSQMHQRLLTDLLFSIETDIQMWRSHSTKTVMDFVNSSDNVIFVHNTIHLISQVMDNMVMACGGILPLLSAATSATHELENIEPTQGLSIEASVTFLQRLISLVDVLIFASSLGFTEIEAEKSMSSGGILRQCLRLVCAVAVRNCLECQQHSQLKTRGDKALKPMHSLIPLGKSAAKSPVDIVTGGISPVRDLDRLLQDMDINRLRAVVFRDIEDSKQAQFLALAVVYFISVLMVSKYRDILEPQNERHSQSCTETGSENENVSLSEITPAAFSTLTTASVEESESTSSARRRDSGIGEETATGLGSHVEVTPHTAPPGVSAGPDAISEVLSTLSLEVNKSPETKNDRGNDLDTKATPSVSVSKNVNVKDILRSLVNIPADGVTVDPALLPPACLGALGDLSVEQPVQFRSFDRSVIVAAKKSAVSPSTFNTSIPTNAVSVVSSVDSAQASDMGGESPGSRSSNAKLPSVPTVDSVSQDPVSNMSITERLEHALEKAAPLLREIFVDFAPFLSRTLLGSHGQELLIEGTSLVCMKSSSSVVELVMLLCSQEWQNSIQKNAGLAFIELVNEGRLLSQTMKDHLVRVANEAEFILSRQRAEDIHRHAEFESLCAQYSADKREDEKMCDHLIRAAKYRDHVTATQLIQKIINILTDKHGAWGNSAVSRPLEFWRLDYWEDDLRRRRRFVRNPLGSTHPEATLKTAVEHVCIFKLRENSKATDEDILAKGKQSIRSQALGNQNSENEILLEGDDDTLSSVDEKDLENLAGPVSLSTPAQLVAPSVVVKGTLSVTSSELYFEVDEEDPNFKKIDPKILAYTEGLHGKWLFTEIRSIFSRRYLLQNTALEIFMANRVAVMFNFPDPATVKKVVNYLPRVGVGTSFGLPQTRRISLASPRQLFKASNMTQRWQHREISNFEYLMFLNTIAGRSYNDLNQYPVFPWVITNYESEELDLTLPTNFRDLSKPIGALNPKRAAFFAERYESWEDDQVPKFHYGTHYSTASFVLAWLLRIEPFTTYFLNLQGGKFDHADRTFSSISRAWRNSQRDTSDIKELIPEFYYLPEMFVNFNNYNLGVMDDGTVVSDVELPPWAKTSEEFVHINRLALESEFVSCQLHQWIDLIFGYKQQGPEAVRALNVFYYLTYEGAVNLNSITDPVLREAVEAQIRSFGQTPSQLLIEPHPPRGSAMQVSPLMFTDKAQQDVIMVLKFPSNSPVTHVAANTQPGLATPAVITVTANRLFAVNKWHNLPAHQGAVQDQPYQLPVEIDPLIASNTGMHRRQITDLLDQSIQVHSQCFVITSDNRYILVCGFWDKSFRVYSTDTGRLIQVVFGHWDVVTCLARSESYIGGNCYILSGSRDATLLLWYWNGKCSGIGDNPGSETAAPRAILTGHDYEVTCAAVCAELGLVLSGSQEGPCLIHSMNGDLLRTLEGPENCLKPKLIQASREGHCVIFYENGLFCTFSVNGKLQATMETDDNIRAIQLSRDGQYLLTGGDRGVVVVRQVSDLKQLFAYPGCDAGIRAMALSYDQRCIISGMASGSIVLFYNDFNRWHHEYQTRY
UniProt Q6ZNJ1: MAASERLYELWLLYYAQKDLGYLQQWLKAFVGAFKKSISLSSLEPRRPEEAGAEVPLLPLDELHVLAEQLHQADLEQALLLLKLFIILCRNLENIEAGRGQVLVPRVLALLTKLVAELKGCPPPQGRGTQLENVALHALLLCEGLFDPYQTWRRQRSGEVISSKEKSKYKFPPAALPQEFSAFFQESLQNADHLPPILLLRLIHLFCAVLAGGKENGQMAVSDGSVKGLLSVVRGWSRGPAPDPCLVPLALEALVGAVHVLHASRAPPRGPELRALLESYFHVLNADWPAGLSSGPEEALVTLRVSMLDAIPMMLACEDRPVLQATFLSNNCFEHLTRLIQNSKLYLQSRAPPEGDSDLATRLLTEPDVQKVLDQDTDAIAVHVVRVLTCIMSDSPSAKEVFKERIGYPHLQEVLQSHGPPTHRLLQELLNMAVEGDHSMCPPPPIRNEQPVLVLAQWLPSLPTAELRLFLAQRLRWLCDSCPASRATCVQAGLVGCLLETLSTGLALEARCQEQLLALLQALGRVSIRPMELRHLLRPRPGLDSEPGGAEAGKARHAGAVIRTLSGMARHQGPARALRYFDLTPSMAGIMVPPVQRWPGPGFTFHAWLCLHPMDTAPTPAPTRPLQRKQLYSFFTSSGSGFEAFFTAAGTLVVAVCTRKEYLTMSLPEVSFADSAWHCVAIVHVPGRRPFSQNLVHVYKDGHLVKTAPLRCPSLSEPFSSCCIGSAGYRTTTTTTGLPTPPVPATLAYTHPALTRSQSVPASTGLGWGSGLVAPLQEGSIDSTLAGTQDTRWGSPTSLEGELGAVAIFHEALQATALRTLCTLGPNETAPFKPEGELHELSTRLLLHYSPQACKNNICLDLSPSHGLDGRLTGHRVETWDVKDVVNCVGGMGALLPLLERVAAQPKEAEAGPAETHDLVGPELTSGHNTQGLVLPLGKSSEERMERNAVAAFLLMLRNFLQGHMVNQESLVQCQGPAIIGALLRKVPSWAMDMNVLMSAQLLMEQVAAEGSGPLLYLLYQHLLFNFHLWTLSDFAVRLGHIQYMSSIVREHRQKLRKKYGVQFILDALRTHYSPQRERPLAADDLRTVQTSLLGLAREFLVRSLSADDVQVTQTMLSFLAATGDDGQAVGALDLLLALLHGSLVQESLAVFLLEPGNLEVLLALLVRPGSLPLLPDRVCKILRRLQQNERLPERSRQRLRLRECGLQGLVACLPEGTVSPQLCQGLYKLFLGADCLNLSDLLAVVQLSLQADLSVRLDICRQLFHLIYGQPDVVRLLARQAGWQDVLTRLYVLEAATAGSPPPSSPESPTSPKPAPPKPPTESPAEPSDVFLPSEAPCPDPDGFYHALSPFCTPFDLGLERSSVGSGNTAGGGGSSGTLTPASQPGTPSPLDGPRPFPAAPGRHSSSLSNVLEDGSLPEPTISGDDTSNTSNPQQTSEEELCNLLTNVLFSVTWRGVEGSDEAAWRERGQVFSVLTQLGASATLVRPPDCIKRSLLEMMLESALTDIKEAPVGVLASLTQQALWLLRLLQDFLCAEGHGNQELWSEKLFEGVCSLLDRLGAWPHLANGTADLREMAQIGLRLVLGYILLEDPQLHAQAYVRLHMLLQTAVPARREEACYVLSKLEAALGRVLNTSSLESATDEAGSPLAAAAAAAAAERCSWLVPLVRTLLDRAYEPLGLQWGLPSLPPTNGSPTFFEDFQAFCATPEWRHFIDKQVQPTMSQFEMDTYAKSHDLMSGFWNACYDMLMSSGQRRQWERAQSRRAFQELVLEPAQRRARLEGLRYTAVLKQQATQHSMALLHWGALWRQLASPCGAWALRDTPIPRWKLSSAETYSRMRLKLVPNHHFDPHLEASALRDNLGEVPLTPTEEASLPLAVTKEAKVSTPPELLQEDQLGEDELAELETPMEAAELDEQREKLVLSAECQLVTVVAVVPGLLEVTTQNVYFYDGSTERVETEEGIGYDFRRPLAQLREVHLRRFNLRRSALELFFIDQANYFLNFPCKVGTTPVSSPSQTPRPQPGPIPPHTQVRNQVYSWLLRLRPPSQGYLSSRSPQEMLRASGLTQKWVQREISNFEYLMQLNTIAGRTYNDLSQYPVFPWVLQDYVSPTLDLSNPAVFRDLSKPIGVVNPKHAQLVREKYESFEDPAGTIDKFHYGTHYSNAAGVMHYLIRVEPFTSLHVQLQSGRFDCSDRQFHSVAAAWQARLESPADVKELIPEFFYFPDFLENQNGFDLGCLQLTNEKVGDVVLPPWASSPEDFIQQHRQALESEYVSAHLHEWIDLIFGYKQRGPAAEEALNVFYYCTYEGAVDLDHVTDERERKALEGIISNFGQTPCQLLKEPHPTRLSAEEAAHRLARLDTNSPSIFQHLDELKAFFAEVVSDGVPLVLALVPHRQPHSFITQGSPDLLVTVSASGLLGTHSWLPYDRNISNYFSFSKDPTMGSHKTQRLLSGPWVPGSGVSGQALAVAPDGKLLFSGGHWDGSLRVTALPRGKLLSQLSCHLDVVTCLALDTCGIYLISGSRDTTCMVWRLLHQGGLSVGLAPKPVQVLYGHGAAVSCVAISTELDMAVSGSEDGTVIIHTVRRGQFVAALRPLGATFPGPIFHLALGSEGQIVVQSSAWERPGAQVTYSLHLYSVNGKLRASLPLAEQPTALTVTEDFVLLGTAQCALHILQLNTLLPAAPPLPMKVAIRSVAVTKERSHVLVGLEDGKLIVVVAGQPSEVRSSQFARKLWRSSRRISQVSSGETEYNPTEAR

## LPS-responsive beige-like anchor protein (LRBA) (from UniProt P50851 1-2863)
  binding: binds

## NBEAL2 (from UniProt Q6ZNJ1 1-2754)
  binding: binds
